Our source for the binding values is article doi:10.1101/2023.09.18.558326.

No constants are given. Whether binding was seen depends on the method and setting. Tags and fused reporters may be left off the sequences shown.

This experiment has as its target BD-CFH1ΔF (GAL4 DNA-binding domain fused to CFH1ΔF) (Arabidopsis). Kind of experiment: two-hybrid.

B1: GAL4 activation domain (AD) fused to PIF5 (protein, UniProt Q84LH8 1-444)
chain: MEQVFADWNFEDNFHMSTNKRSIRPEDELVELLWRDGQVVLQSQARREPSVQVQTHKQETLRKPNNIFLDNQETVQKPNYAALDDQETVSWIQYPPDDVIDPFESEFSSHFFSSIDHLGGPEKPRTIEETVKHEAQAMAPPKFRSSVITVGPSHCGSNQSTNIHQATTLPVSMSDRSKNVEERLDTSSGGSSGCSYGRNNKETVSGTSVTIDRKRKHVMDADQESVSQSDIGLTSTDDQTMGNKSSQRSGSTRRSRAAEVHNLSERRRRDRINERMKALQELIPHCSRTDKASILDEAIDYLKSLQMQLQVMWMGSGMAAAAAAAASPMMFPGVQSSPYINQMAMQSQMQLSQFPVMNRSAPQNHPGLVCQNPVQLQLQAQNQILSEQLARYMGGIPQMPPAGNQMQTVQQQPADMLGFGSPAGPQSQLSAPATTDSLHMGKIG
With B1, the binding entry is “no binding”.

B2: GAL4 activation domain (AD) fused to PIF1 (protein, UniProt Q8GZM7 1-478)
chain: MHHFVPDFDTDDDYVNNHNSSLNHLPRKSITTMGEDDDLMELLWQNGQVVVQNQRLHTKKPSSSPPKLLPSMDPQQQPSSDQNLFIQEDEMTSWLHYPLRDDDFCSDLLFSAAPTATATATVSQVTAARPPVSSTNESRPPVRNFMNFSRLRGDFNNGRGGESGPLLSKAVVRESTQVSPSATPSAAASESGLTRRTDGTDSSAVAGGGAYNRKGKAVAMTAPAIEITGTSSSVVSKSEIEPEKTNVDDRKRKEREATTTDETESRSEETKQARVSTTSTKRSRAAEVHNLSERKRRDRINERMKALQELIPRCNKSDKASMLDEAIEYMKSLQLQIQMMSMGCGMMPMMYPGMQQYMPHMAMGMGMNQPIPPPSFMPFPNMLAAQRPLPTQTHMAGSGPQYPVHASDPSRVFVPNQQYDPTSGQPQYPAGYTDPYQQFRGLHPTQPPQFQNQATSYPSSSRVSSSKESEDHGNHTTG
With B2, the binding entry was “no binding”.
